Data from PubChem BioAssay AID1487 (National Center for Advancing Translational Sciences (NCATS), 2009).
The list shows a part of the results. The main result of the screen is listed elsewhere. These columns were measured beside it and carry no call. Compounds called inactive in the main read-out are mostly missing here. Words in brackets tell the shape of the fitted curve; partial curves, single points and poor fits give uncertain potencies.

Test: qHTS Assay for Modulators of Lamin A Splicing
Conditions: HeLa LMNA splicing GFP/RFP minigene ratio, 48 h
How it was run: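 S3 HeLa stable clones carrying a lamin A-EGFP splicing minigene plus DsRed2 were seeded at 600 cells/well in Opti-MEM with 2% FBS, pin-dosed and incubated 48 h at 37°C. Acumen cytometry (488 nm) gave the GFP/RFP total-intensity ratio.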

[1] = measured here: RFP viability control channel
[2] = measured here: GFP splicing reporter channel

| Compound | AC50 [1] | AC50 [2] |
| --- | --- | --- |
| C=CCC(Nc1ccccc1)C12C=CC(O1)C(C(=O)OC)=C2C(=O)OC (configuration not stated) | 7.08 µM [rising, full curve, poor fit] |  |
| COc1cccc(Cn2c(=O)c(-c3ccccc3)nc3cnc(OC)nc32)c1 | 25.1 µM [falling, single point] | 17.8 µM [falling, single point] |
| O=C(Cn1cnc([N+](=O)[O-])c1)Nc1cc(Oc2ccc(Cl)cc2Cl)cc([N+](=O)[O-])c1 | 14.1 µM [falling, partial curve] | 22.4 µM [falling, single point] |
| CCCN(CCC)C(=O)CSc1nc2ccccc2c(=O)n1C1CCCC1 | 35.5 µM [rising, single point] |  |
| Cc1cc(C)c2cc(CN(CCCN(C)C)C(=S)NCc3ccccc3)c(=O)[nH]c2c1 | 0.126 µM [falling, partial curve, poor fit] |  |
| O=C(c1ccc(CSc2ccc(Cl)cc2)cc1)N1CCCC1 | 7.08 µM [rising, full curve] | 0.0447 µM [rising, full curve] |
| O=C(CSc1nc2ccccc2n1Cc1cccc(C(F)(F)F)c1)NCc1ccccc1 | 14.1 µM [rising, single point] |  |
| CC1CCC(C(C)C)C(OC(=O)COC(=O)c2ccc(=O)[nH]c2)C1 (configuration not stated) |  | 11.2 µM [rising, partial curve] |
| O=C(c1ccco1)N1CCN(C(=O)c2cc3c(s2)-c2ccccc2OC3)CC1 | 25.1 µM [rising, partial curve, poor fit] |  |
| CN(/C(=N/S(=O)(=O)c1cccs1)c1ccccc1)c1ccc(O)cc1 | 0.0398 µM [falling, full curve, poor fit] | 0.0398 µM [falling, full curve, poor fit] |
| COc1ccc(N2CCN(CC(O)COCCOc3ccc(Br)cc3)CC2)cc1 (configuration not stated) | 14.1 µM [rising, partial curve] | 11.2 µM [rising, partial curve] |
| BrC(=C\c1ccccc1)/C=N/Nc1nc(N2CCOCC2)nc(N2CCOCC2)n1 | 22.4 µM [rising, single point] |  |
| Cc1ccc(S(=O)(=O)C(CNC(=O)C(=O)NCCc2ccc(F)cc2)c2cccs2)cc1 (configuration not stated) | 2.51 µM [falling, partial curve, poor fit] | 1.26 µM [falling, partial curve, poor fit] |
| Cc1ccc(S(=O)(=O)N(C)C)cc1NC(=O)COC(=O)c1c(C)noc1C | 22.4 µM [rising, single point] |  |
| COCCn1c(=S)[nH]c2cc(C(=O)N3CCN(c4ccc(F)cc4)CC3)ccc2c1=O |  | 0.708 µM [falling, partial curve, poor fit] |
| COC(=O)Nc1ccc(S(=O)(=O)N2CCN(c3ccc(F)cc3)CC2)cc1 | 20 µM [rising, single point] | 11.2 µM [rising, single point] |
| CCc1nnc(NC(=O)c2cccc(S(=O)(=O)N(C)c3ccc(OC)cc3)c2)s1 | 0.0251 µM [rising, full curve, poor fit] |  |
| COC(=O)c1ccc(S(=O)(=O)NCCSc2nnc3c4ccccc4n(C)c3n2)cc1 | 20 µM [rising, single point] | 4.47 µM [rising, full curve] |
| O=C(Cc1ccccc1)c1c[nH]c(C(=O)NCc2ccncc2)c1 | 0.00398 µM [rising, full curve, poor fit] | 11.2 µM [rising, partial curve, poor fit] |
| COc1cc2c(cc1OC)CN(c1ccc([N+](=O)[O-])cc1Cl)CC2 | 31.6 µM [rising, single point] | 14.1 µM [rising, partial curve] |
| CCCNC(=O)NC(=O)CSc1nc(C)cs1 |  | 0.1 µM [falling, full curve, poor fit] |
| CCSc1nnc(-c2cccc(S(=O)(=O)N(CC)CC)c2)n1Cc1ccccc1 | 28.2 µM [rising, single point] |  |
| CCC(O)(CC)C(=O)NN(C(=O)Nc1csc2c1CCCC2)c1ccccc1 | 35.5 µM [rising, single point] |  |
| CCCCN(CCCC)S(=O)(=O)c1ccc(NC(=O)c2ccc([N+](=O)[O-])cc2Cl)cc1 | 35.5 µM [rising, single point] |  |
| Cc1ccc(OCc2cn3cccnc3n2)cc1 |  | 10 µM [rising, partial curve] |
| CCOC(=O)c1c(S(=O)(=O)N2CCN(c3cc(Cl)ccc3C)CC2)c(C)n(C)c1C | 0.447 µM [falling, full curve, poor fit] | 1.41 µM [falling, full curve, poor fit] |
| O=C(Cn1c2c(sc1=O)C1c3ccccc3OCC1CS2)Nc1ccc(Cl)cc1 (configuration not stated) | 35.5 µM [rising, single point] |  |

Rewritten with tabs: part of the list above.
Compound	AC50 [1]	AC50 [2]
O=C(CSc1nc2ccccc2n1Cc1cccc(C(F)(F)F)c1)NCc1ccccc1	14.1 µM [rising, single point]	
BrC(=C\c1ccccc1)/C=N/Nc1nc(N2CCOCC2)nc(N2CCOCC2)n1	22.4 µM [rising, single point]	
COc1cc2c(cc1OC)CN(c1ccc([N+](=O)[O-])cc1Cl)CC2	31.6 µM [rising, single point]	14.1 µM [rising, partial curve]
CCCNC(=O)NC(=O)CSc1nc(C)cs1		0.1 µM [falling, full curve, poor fit]
O=C(Cn1c2c(sc1=O)C1c3ccccc3OCC1CS2)Nc1ccc(Cl)cc1 (configuration not stated)	35.5 µM [rising, single point]	

(continued)

| Compound | AC50 [1] | AC50 [2] |
| --- | --- | --- |
| CCC(Sc1nc2n[nH]c(C)c2c(=N)n1-c1ccc(Br)cc1)C(=O)N(CC)CC (configuration not stated) | 35.5 µM [falling, single point] |  |
| COc1cc2nc(C3CCC3)nc(N3CCN(c4ccccc4OC)CC3)c2cc1OC |  | 35.5 µM [rising, single point] |
| O=C(c1cccc(C(=O)N2CCN(Cc3ccccc3)CC2)c1)N1CCN(Cc2ccccc2)CC1 | 10 µM [rising, partial curve] |  |
| C=CCN1C(=CCO)[C@H]2C[C@H]3[C@@H]1CC[C@@]31c3ccccc3N3C=C4[C@@H]5N(/C=C/2[C@H]31)c1ccccc1[C@]51CC[C@H]2[C@H]1C[C@@H]4/C(=C/CO)N2CC=C | 0.00891 µM [falling, partial curve] | 0.00891 µM [falling, full curve, poor fit] |
| Clc1ccc(-c2noc(CSc3nnc(-c4ccncc4)n3-c3ccccc3)n2)cc1 | 12.6 µM [rising, partial curve] |  |
| O=S1(=O)CCC(NC(=S)SCCOc2ccccc2)C1 (configuration not stated) |  | 35.5 µM [falling, single point] |
| CCCC(=O)N1CCN(c2ccc(NC(=O)c3cc4ccccc4o3)cc2)CC1 | 22.4 µM [rising, single point] |  |
| O=[N+]([O-])c1cccc(-c2n[nH]c(=S)n2Cc2ccccc2)c1 | 22.4 µM [rising, single point] | 4.47 µM [rising, partial curve] |
| NC1(C(=O)O)CCCCC1 |  | 0.001 µM [rising, full curve, poor fit] |
| OCCCCNCc1ccc(OCc2ccc(Cl)cc2Cl)cc1 | 35.5 µM [rising, single point] |  |
| COc1ccccc1CNc1ncncc1-c1ccc(N(C)C)cc1 |  | 15.8 µM [falling, partial curve, poor fit] |
| O=c1oc2ccccc2c(O)c1Cc1cc(Cl)c2cccnc2c1O | 35.5 µM [rising, single point] |  |
| COc1cccc(NC(=O)OCCN2CCN(Cc3ccccc3)CCC2=O)c1 | 20 µM [rising, single point] | 35.5 µM [rising, single point] |
| CC1=C(C(=O)NCc2ccco2)C2(CCC(C)CC2)OC1=O (configuration not stated) | 0.2 µM [rising, full curve, poor fit] |  |
| COc1ccccc1CN(Cc1cc2cc3c(cc2[nH]c1=O)OCCO3)Cc1nnnn1Cc1ccco1 |  | 35.5 µM [falling, single point] |
| O=C(NC(c1ccccc1)c1ccccc1)C1CCCC1 | 0.00708 µM [rising, full curve, poor fit] |  |
| Cc1nc(-c2ccc(Cl)cc2)sc1CCNC(=O)C(=O)Nc1ccccc1C#N | 14.1 µM [falling, partial curve] | 12.6 µM [falling, partial curve] |
| Cc1cc(N2C(=O)C3C4c5ccccc5C(c5ccccc54)C3C2=O)no1 (configuration not stated) | 12.6 µM [rising, single point] |  |
| c1ccc(-c2nnc(SCc3cn4ccsc4n3)o2)cc1 | 31.6 µM [rising, single point] |  |
| CCCCN(C(=O)Nc1ccc(OCC)cc1)C1CCN(C(C)=O)CC1 |  | 3.98 µM [falling, partial curve, poor fit] |
| CN(C)N1C(N)=C(C#N)C(c2cccc3ccccc23)C2=C1CC(c1ccccc1)CC2=O (configuration not stated) | 28.2 µM [falling, single point] | 3.55 µM [falling, partial curve, poor fit] |
| COc1ccc(Cn2c(CCC(=O)N3CCN(c4ccccn4)CC3)nc3ncccc3c2=O)cc1 | 35.5 µM [rising, single point] |  |
| CCCc1ccc(OC(=O)c2sc3ncn(Cc4cccc(F)c4)c(=O)c3c2C)cc1 |  | 35.5 µM [falling, single point] |
| COc1ccc(NS(=O)(=O)c2cc(NC(=O)c3ccc(C)o3)ccc2N2CCCCC2)cc1 | 11.2 µM [rising, partial curve] |  |
| CN(Cc1ccccc1)C(=O)CSc1nc2ccccc2c(=O)n1Cc1ccco1 | 12.6 µM [rising, partial curve] | 2.82 µM [rising, partial curve] |
| COc1ccc(C(=O)CSc2nc3[nH]ncc3c(=O)[nH]2)cc1 | 0.0398 µM [falling, full curve, poor fit] | 0.0282 µM [falling, full curve, poor fit] |
| CC1=Nn2c(nc3sc4c(c3c2=O)CCCC4)SC1 | 35.5 µM [rising, single point] |  |
